Results published in the supplement of paper PMC4683952.
Structures can show the parent of a compound that is named as a salt. In all, about 1,200 compounds went through this assay and about 50 (4%) showed activity. Cut-off read from the data, not from the text of the source: all actives reach 1.3 or more but so do some inactives. This is one part of the list.

What follows are molecules tested on Lgr5 (MarsCy1-Lgr5-EGFP, U2OS) (assay: cell-surface Lgr5 expression (SCi1 fluorescence, background-subtracted) relative to WT DMSO (fold of DMSO control); higher = more Lgr5 at the plasma membrane, active = hit call of the paper). Details: U2OS MarsCy1-Lgr5-EGFP stable; treatment time: overnight; 16 µM; library: Johns Hopkins Clinical Compound Library.

SMILES | cell-surface Lgr5 expression
C[C@@H]1CN([C@H]2CC[C@](C#N)(c3ccc(F)cc3)CC2)CC[C@]1(C(=O)O)c1ccccc1 [Levocabastine] | inactive: 0.953
[Na+].[Na+].[O]=[Cr](=[O])([O-])[O-] [Sodium chromate] | inactive: 0.294
C1CN1c1nc(N2CC2)nc(N2CC2)n1 [Triethylenemelamine] | inactive: 1.39
C=CN1CCCC1=O.II [Povidone iodine] | inactive: 0.672
C=CN1CCCC1=O.II [Povidone iodine (Polyvinylpyrrolidone-iodine complex)] | inactive: 1.24
Cl[C@H]1[C@H](Cl)[C@@H](Cl)[C@@H](Cl)[C@H](Cl)[C@H]1Cl [Lindane (1,2,3,4,5,6-Hexachlorocyclohexane,γ-isomer)] | inactive: 1.03
Oc1ccc(Cl)cc1Cc1cc(Cl)ccc1O [Dichlorophene (2,2 methylene bis 4-chlorophenol)] | inactive: 0.92
CCC1(C)CC(=O)NC(=O)C1 [Bemegride (3-methyl-3-ethylglutarimide)] | inactive: 0.258
C#CC(C)(O)CC (stereo not drawn) [Meparfynol (Methylpentynol, 3-Methyl-1-pentyn-3-ol)] | inactive: 0.883
C[N+]1(C)CCCC(OC(=O)C(O)(c2ccccc2)c2ccccc2)C1 (stereo not drawn) [Mepenzolate bromide] | inactive: 0.979
N[C@@H]1C[C@H]1c1ccccc1.N[C@H]1C[C@@H]1c1ccccc1 [Tranylcypromine HCL (trans-2-phenylcyclopropylamine)] | inactive: 0.565
CCOC(=O)NC(O)C(Cl)(Cl)Cl (stereo not drawn) [Carbocloral (8-ethoxy-5-quinolinesulfonic acid)] | inactive: 0.471
CNC(C)Cc1ccccc1OC (stereo not drawn) [Methoxyphenamine] | inactive: 1.06
C=C1C[C@@H]2[C@H](CC[C@]3(C)C(=O)CC[C@@H]23)[C@@]2(C)C=CC(=O)C=C12 [Exemestane] | inactive: 1.48
CC(=O)[C@H]1CC[C@H]2[C@@H]3CC[C@H]4C[C@H](O)CC[C@]4(C)[C@H]3C(=O)C[C@]12C [Alfaxalone] | inactive: 1.28
CCCCCCCCCCCCCCCC[n+]1ccccc1 [Cetylpyridinium bromide monohydrate] | inactive: 1.23
CCCCCCCCCCCCCCCC[n+]1ccccc1 [Cetylpyridinium (Pyrisept)] | inactive: 1.06
CC(=O)OCC1=C(C(=O)[O-])N2C(=O)[C@@H](NC(=O)CCC[C@@H](N)C(=O)[O-])[C@H]2SC1.[Zn+2] [Cephalosporin C zinc salt] | inactive: 0.712
CN(C)[C@@H]1C(=O)C(C(N)=O)=C(O)[C@@]2(O)C(=O)C3=C(O)c4c(O)cccc4[C@@](C)(O)[C@H]3[C@H](O)[C@@H]12 [Oxytetracycline hemicalcium salt] | inactive: 0.817
O=C(C[S+]([O-])C(c1ccccc1)c1ccccc1)NO (stereo not drawn) [Adrafinil] | inactive: 1.16
Oc1ccccc1-c1ccccc1 [2-Phenylphenol] | inactive: 1.18
CNCC(O)c1ccc(O)cc1 (stereo not drawn) [Oxedrine (Synephrine)] | inactive: 1.35
CN1[C@@H]2CC[C@H]1C[C@@H](OC(=O)C(CO)c1ccccc1)C2 (stereo partly drawn) [Atropine sulfate] | inactive: 1.08

SMILES | cell-surface Lgr5 expression
OCC(Cl)(Cl)Cl [2,2,2-Trichloroethanol] | inactive: 0.698
CNC(C)(C)Cc1ccccc1 [Mephentermine] | inactive: 1.2
CNC(C)(C)Cc1ccccc1 [Mephentermine hemisulfate salt] | inactive: 0.95
C[C@]12CCC(=O)C(O)=C1CC[C@@H]1[C@@H]2CC[C@]2(C)C(=O)CC[C@@H]12 [Formestane (4-Androsten-4-ol-3,17-dione)] | inactive: 1.18
c1ccc(C2CC2)c(OCC2=NCCN2)c1 [Cirazoline hydrochloride] | inactive: 1.24
CNC1(c2ccccc2Cl)CCCCC1=O.Cc1cccc(C)c1NC1=NCCCS1 (stereo not drawn) [Ketamine/Xylazine] | inactive: 1.1
CC(C)(C)OC(=O)c1ncn2c1[C@@H]1CCCN1C(=O)c1c(Br)cccc1-2 [Bretazenil] | inactive: 1.17
CN(C)C(=O)Oc1cccc([N+](C)(C)C)c1 [Neostigmine methyl sulfate] | inactive: 0.518
CNC(=O)Oc1ccc2c(c1)[C@]1(C)CCN(C)[C@@H]1N2C [Eserine (PHYSOSTIGMINE)] | inactive: 0.976
CCN(CC)CCOC(=O)C(O)(c1ccccc1)c1ccccc1 [Benactyzine HCL] | inactive: 1.22
COc1ccc(C(=O)c2c(C)n(CCN3CCOCC3)c3ccccc23)cc1 [Pravadoline] | inactive: 1.11
C[C@H]1[C@H]2Cc3ccc(O)cc3[C@]1(C)CCN2CC1CC1 [Cyclazocine] | inactive: 1.09
CN1CCc2cc3c(cc2C1O)OCO3 (stereo not drawn) [Hydrastinine] | inactive: 0.22
CN(CC(=O)O)C(=N)NP(=O)(O)O [Phosphocreatine] | inactive: 1.17
CC(=O)Nc1cc([As](=O)(O)O)ccc1O [Acetarsone] | inactive: 1.37
ClC1=C(Cl)C2(Cl)C(CBr)CC1(Cl)C2(Cl)Cl (stereo not drawn) [Bromocyclen] | inactive: 1.24
C[C@@H]1O[C@@H](O[C@@H]2C=C3CC[C@@H]4[C@H](CC[C@]5(C)[C@@H](c6ccc(=O)oc6)CC[C@]45O)[C@@]3(C)CC2)[C@H](O)[C@H](O)[C@H]1O [Proscillaridin A] | inactive: 0.203
FC(F)(F)c1ccc2c(c1)N(CCCN1CCN(CCCl)CC1)c1ccccc1S2 [Fluphenazine N-mustard (SKF-7171A)] | inactive: 0.894
O=[N+]([O-])OCC(CO[N+](=O)[O-])O[N+](=O)[O-] [Nitroglycerine] | inactive: 1.07
COP(=S)(OC)Oc1cc(Cl)c(Br)cc1Cl [Bromofos (Bromophos-methyl)] | inactive: 1.3
NCCCNCCSP(=O)(O)O [Amifostine] | inactive: 1.35
Nc1ccc([As](=O)(O)O)cc1 [p-Arsanilic acid] | inactive: 1.15
CCCCCCCCC(=O)NCc1ccc(O)c(OC)c1 [Nonivamide (Pelargonic acid vanillylamide)] | inactive: 0.888

SMILES | cell-surface Lgr5 expression
CCCCCCCCC(=O)NCc1ccc(O)c(OC)c1 [Nonivamide (N-Vanillylnonanamide)] | inactive: 0.81
Oc1ccc2[nH]cc(CCCCN3CC=C(c4ccccc4)CC3)c2c1 [Roxindole Mesylate] | inactive: 1.18
CCOC(=O)CC(SP(=S)(OC)OC)C(=O)OCC (stereo not drawn) [Malathion] | inactive: 1.11
CC(NC(C)(C)C)C(=O)c1cccc(Cl)c1 (stereo not drawn) | inactive: 0.727
CN1[C@@H]2C[C@@H](OC(=O)[C@H](CO)c3ccccc3)C[C@H]1[C@@H]1O[C@@H]12 [Scopolamine (-)] | inactive: 0.725
CN1[C@@H]2C[C@@H](OC(=O)[C@H](CO)c3ccccc3)C[C@H]1[C@@H]1O[C@@H]12 [Scopolamine] | inactive: 1.12
CN[C@@H](C)[C@@H](O)c1ccccc1 [Pseudoephedrine HCL (+)] | inactive: 1.33
O=[N+]([O-])C(Br)(CO)CO [Bronopol (2-Bromo-2-nitro-1,3-propanediol)] | inactive: 1.12
[O-][n+]1ccccc1[S-].[O-][n+]1ccccc1[S-].[Zn+2] [Pyrithione zinc (1-Hydroxypyridine-2-Thione Zinc Salt)] | inactive: 0.923
CN1C[C@H](C(=O)N[C@]2(C)O[C@@]3(O)[C@@H]4CCCN4C(=O)[C@H](Cc4ccccc4)N3C2=O)C=C2c3cccc4[nH]cc(c34)C[C@H]21 [Ergotamine D-tartrate] | inactive: 0.554
O=c1n(Cl)c(=O)n(Cl)c(=O)n1Cl [Symclosene (Trichloroisocyanuric acid, 97%)] | inactive: 1
OCCOc1ccccc1 [2-Phenoxyethanol] | inactive: 1.25
CCCC[N+]1(C)[C@@H]2C[C@@H](OC(=O)[C@H](CO)c3ccccc3)C[C@H]1[C@@H]1O[C@@H]12 (stereo partly drawn) [Scopolamine N-butyl bromide (-)] | inactive: 1.15
O=[N+]([O-])[O-].[Ag+] [Silver nitrate] | inactive: 1.16
C[C@]12CCC(=O)C=C1C=C[C@@H]1[C@@H]2CC[C@@]2(C)[C@H]1CC[C@@]2(O)CCC(=O)O [Potassium canrenoate] | inactive: 1.23
CC(C)NC(C)Cc1ccc(I)cc1 (stereo not drawn) [Iofetamine] | inactive: 0.905
O=c1ccc2cc(O[C@@H]3O[C@H](CO)[C@@H](O)[C@H](O)[C@H]3O)c(O)cc2o1 [Esculin monohydrate] | inactive: 0.863
c1ccc2c(c1)Nc1ccccc1S2 [Phenothiazine] | inactive: 1.04
O=c1c2ccccc2[se]n1-c1ccccc1 [Ebselen] | inactive: 0.821
CC(=O)O[C@H]1C[C@@H]2CC[C@@H]3[C@H](CC[C@@]4(C)[C@H]3C[C@H]([N+]3(C)CCCCC3)[C@@H]4OC(C)=O)[C@@]2(C)C[C@@H]1[N+]1(C)CCCCC1 [Pancuronium bromide] | inactive: 1.08
C[C@]12CC[C@H](O)CC1=CC[C@@H]1[C@@H]2CC[C@]2(C)C(=O)CC[C@@H]12 [Prasterone (DHEA, dehydroepiandrosterone)] | active: 1.33
C[C@]12CC[C@H](O)CC1=CC[C@@H]1[C@@H]2CC[C@]2(C)C(=O)CC[C@@H]12 [Prasterone (dehydroisoandrosterone)] | inactive: 1.09

Another view of part of the listing above:
SMILES,cell-surface Lgr5 expression
CC(=O)OCC1=C(C(=O)[O-])N2C(=O)[C@@H](NC(=O)CCC[C@@H](N)C(=O)[O-])[C@H]2SC1.[Zn+2] [Cephalosporin C zinc salt],inactive: 0.712
CN(C)[C@@H]1C(=O)C(C(N)=O)=C(O)[C@@]2(O)C(=O)C3=C(O)c4c(O)cccc4[C@@](C)(O)[C@H]3[C@H](O)[C@@H]12 [Oxytetracycline hemicalcium salt],inactive: 0.817
O=C(C[S+]([O-])C(c1ccccc1)c1ccccc1)NO (stereo not drawn) [Adrafinil],inactive: 1.16
Oc1ccccc1-c1ccccc1 [2-Phenylphenol],inactive: 1.18
CNCC(O)c1ccc(O)cc1 (stereo not drawn) [Oxedrine (Synephrine)],inactive: 1.35
CN1[C@@H]2CC[C@H]1C[C@@H](OC(=O)C(CO)c1ccccc1)C2 (stereo partly drawn) [Atropine sulfate],inactive: 1.08
"OCC(Cl)(Cl)Cl [2,2,2-Trichloroethanol]",inactive: 0.698
CNC(C)(C)Cc1ccccc1 [Mephentermine],inactive: 1.2
CNC(C)(C)Cc1ccccc1 [Mephentermine hemisulfate salt],inactive: 0.95
"C[C@]12CCC(=O)C(O)=C1CC[C@@H]1[C@@H]2CC[C@]2(C)C(=O)CC[C@@H]12 [Formestane (4-Androsten-4-ol-3,17-dione)]",inactive: 1.18
c1ccc(C2CC2)c(OCC2=NCCN2)c1 [Cirazoline hydrochloride],inactive: 1.24
CNC1(c2ccccc2Cl)CCCCC1=O.Cc1cccc(C)c1NC1=NCCCS1 (stereo not drawn) [Ketamine/Xylazine],inactive: 1.1
CC(C)(C)OC(=O)c1ncn2c1[C@@H]1CCCN1C(=O)c1c(Br)cccc1-2 [Bretazenil],inactive: 1.17
CN(C)C(=O)Oc1cccc([N+](C)(C)C)c1 [Neostigmine methyl sulfate],inactive: 0.518
